PubChem BioAssay AID1259405 | NCATS – 2018
The whole screen tested about 50,000 reagents; below is an unselected part. In the full data, about 4,000 (8%) were called active. 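Mouse siRNA library applied to hamster cells; one well for each siRNA.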 The numbers tell different reagents against one gene apart.

Screen: 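Silenced genes that increase secreted GFP made by CHO cells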 (primary screen)
Cell system: Chinese hamster CHO-K1 ovary cells with stable secreted eGFP expression
Reagent: single siRNA against mouse genes, 0.8 pmol siRNA per well (2 µl of 400 nM stock)
Timing: 3 days
Measurement: 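Per-well intracellular GFP measured by laser scanning cytometry, plus viability from ATP luminescence, each relative to plate median of non-targeting control wells, in %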
Scale: GFP, % of control: higher = more GFP per well, higher productivity; viability (ATP), % of control: higher = more viable cells (more ATP)
Rule for the call: 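Called active when intracellular GFP, relative to negative control, is at or above 120%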

| target | siRNA no. | GFP, % of control | viability (ATP), % of control | Call |
| --- | --- | --- | --- | --- |
| Ifi30 (GeneID 65972) | 1 | 65.5 | 96.5 | inactive |
| Ifi30 (GeneID 65972) | 2 | 65.4 | 66.9 | inactive |
| Ifi30 (GeneID 65972) | 3 | 62.6 | 48.1 | inactive |
| Stk32b (GeneID 64293) | 1 | 63.8 | 48.8 | inactive |
| Ehbp1 (GeneID 216565) | 1 | 78.3 | 78.9 | inactive |
| Ehbp1 (GeneID 216565) | 2 | 60.2 | 53.8 | inactive |
| Ehbp1 (GeneID 216565) | 3 | 75.2 | 80.3 | inactive |
| 4933409G03Rik (GeneID 227998) | 1 | 85.1 | 69.5 | inactive |
| 4933409G03Rik (GeneID 227998) | 2 | 147 | 94.7 | active |
| 4933409G03Rik (GeneID 227998) | 3 | 174 | 153 | active |
| Snai2 (GeneID 20583) | 1 | 63.2 | 54.2 | inactive |
| Snai2 (GeneID 20583) | 2 | 81.7 | 76.6 | inactive |
| Rxfp3 (GeneID 239336) | 1 | 130 | 104 | active |
| Rxfp3 (GeneID 239336) | 2 | 72.6 | 80.1 | inactive |
| Rxfp3 (GeneID 239336) | 3 | 72.9 | 67.5 | inactive |
| Amigo1 (GeneID 229715) | 1 | 157 | 131 | active |
| Amigo1 (GeneID 229715) | 2 | 66.7 | 64.4 | inactive |
| Amigo1 (GeneID 229715) | 3 | 25.6 | 59.5 | inactive |
| Nrcam (GeneID 319504) | 1 | 52.1 | 58.1 | inactive |
| Nrcam (GeneID 319504) | 2 | 100 | 57.6 | inactive |
| Nrcam (GeneID 319504) | 3 | 82.7 | 90.9 | inactive |
| Dipk2b (GeneID 75905) | 1 | 84.4 | 89.2 | inactive |
| Dipk2b (GeneID 75905) | 2 | 39.9 | 42.3 | inactive |
| Dipk2b (GeneID 75905) | 3 | 106 | 110 | inactive |
| Ppp3r1 (GeneID 19058) | 1 | 79.9 | 80.7 | inactive |
| Ppp3r1 (GeneID 19058) | 2 | 52.1 | 55.8 | inactive |
| Ppp3r1 (GeneID 19058) | 3 | 87.7 | 88.8 | inactive |
| Ndufab1 (GeneID 70316) | 1 | 90.9 | 49.7 | inactive |
| Ndufab1 (GeneID 70316) | 2 | 83 | 60.3 | inactive |
| Ndufab1 (GeneID 70316) | 3 | 180 | 150 | active |
| Hexd (GeneID 238023) | 1 | 81.5 | 65.5 | inactive |
| Hexd (GeneID 238023) | 2 | 75.2 | 76.8 | inactive |
| Hexd (GeneID 238023) | 3 | 112 | 88.2 | inactive |
| Capn2 (GeneID 12334) | 1 | 69.7 | 97.9 | inactive |
| Capn2 (GeneID 12334) | 2 | 50.3 | 63.3 | inactive |
| Capn2 (GeneID 12334) | 3 | 81.6 | 72.7 | inactive |
| Sgcg (GeneID 24053) | 1 | 136 | 116 | active |
| Sgcg (GeneID 24053) | 2 | 101 | 75.4 | inactive |
| Sgcg (GeneID 24053) | 3 | 77.6 | 81.1 | inactive |
| Haus4 (GeneID 219072) | 1 | 75.4 | 86.7 | inactive |
| Haus4 (GeneID 219072) | 2 | 72.7 | 78.6 | inactive |
| Haus4 (GeneID 219072) | 3 | 77.8 | 88.6 | inactive |
| Or1e34 (GeneID 259009) | 1 | 93.3 | 61.5 | inactive |
| Or1e34 (GeneID 259009) | 2 | 73.6 | 77.6 | inactive |
| Or1e34 (GeneID 259009) | 3 | 94.4 | 107 | inactive |
| Lasp1 (GeneID 16796) | 1 | 86.2 | 95.9 | inactive |
| Lasp1 (GeneID 16796) | 2 | 59 | 66.6 | inactive |

Hits (from the list above):
| target | siRNA no. | GFP, % of control | viability (ATP), % of control | Call |
| --- | --- | --- | --- | --- |
| 4933409G03Rik (GeneID 227998) | 2 | 147 | 94.7 | active |
| 4933409G03Rik (GeneID 227998) | 3 | 174 | 153 | active |
| Rxfp3 (GeneID 239336) | 1 | 130 | 104 | active |
| Amigo1 (GeneID 229715) | 1 | 157 | 131 | active |
| Ndufab1 (GeneID 70316) | 3 | 180 | 150 | active |
| Sgcg (GeneID 24053) | 1 | 136 | 116 | active |

The results go on.
| target | siRNA no. | GFP, % of control | viability (ATP), % of control | Call |
| --- | --- | --- | --- | --- |
| Eef2kmt (GeneID 70511) | 1 | 71.5 | 71.5 | inactive |
| Eef2kmt (GeneID 70511) | 2 | 70 | 86.6 | inactive |
| Eef2kmt (GeneID 70511) | 3 | 88.3 | 91.9 | inactive |
| Arpc1b (GeneID 11867) | 1 | 34.5 | 43 | inactive |
| Arpc1b (GeneID 11867) | 2 | 75.7 | 67.5 | inactive |
| Arpc1b (GeneID 11867) | 3 | 49 | 77.3 | inactive |
| Chrna3 (GeneID 110834) | 1 | 95.1 | 91.8 | inactive |
| Chrna3 (GeneID 110834) | 2 | 43.9 | 40.9 | inactive |
| Chrna3 (GeneID 110834) | 3 | 82.9 | 86.3 | inactive |
| Enpp4 (GeneID 224794) | 1 | 49.1 | 76.8 | inactive |
| Enpp4 (GeneID 224794) | 2 | 75.8 | 76.7 | inactive |
| Enpp4 (GeneID 224794) | 3 | 77.5 | 75.2 | inactive |
| Asns (GeneID 27053) | 1 | 53.5 | 61.9 | inactive |
| Asns (GeneID 27053) | 2 | 65 | 58.5 | inactive |
| Asns (GeneID 27053) | 3 | 69.6 | 67.8 | inactive |
| Pilrb1 (GeneID 170741) | 1 | 43.4 | 21.2 | inactive |
| Pilrb1 (GeneID 170741) | 2 | 57.5 | 57 | inactive |
| Pilrb1 (GeneID 170741) | 3 | 111 | 75.3 | inactive |
| Chd4 (GeneID 107932) | 1 | 335 | 98.2 | active |
| Chd4 (GeneID 107932) | 2 | 107 | 81.2 | inactive |
| Chd4 (GeneID 107932) | 3 | 206 | 74.8 | active |
| Chd4 (GeneID 107932) | 4 | 273 | 75 | active |
| Chd4 (GeneID 107932) | 5 | 98.4 | 93.5 | inactive |
| Chd4 (GeneID 107932) | 6 | 243 | 77.1 | active |
| Scara3 (GeneID 219151) | 1 | 69.1 | 56.1 | inactive |
| Scara3 (GeneID 219151) | 2 | 66.4 | 97.5 | inactive |
| Scara3 (GeneID 219151) | 3 | 49.4 | 61.8 | inactive |
| Cct7 (GeneID 12468) | 1 | 87.9 | 83.8 | inactive |
| Cct7 (GeneID 12468) | 2 | 47.6 | 42.7 | inactive |
| Cct7 (GeneID 12468) | 3 | 80.7 | 41 | inactive |
| Fndc3c1 (GeneID 333564) | 1 | 81.8 | 73 | inactive |
| Fndc3c1 (GeneID 333564) | 2 | 63.3 | 77.9 | inactive |
| Fndc3c1 (GeneID 333564) | 3 | 66.4 | 85.8 | inactive |
| Or51f2 (GeneID 259095) | 1 | 142 | 100 | active |
| Or51f2 (GeneID 259095) | 2 | 121 | 63.5 | active |
| Or51f2 (GeneID 259095) | 3 | 37.9 | 79 | inactive |
| Niban2 (GeneID 227737) | 1 | 141 | 82.4 | active |
| Niban2 (GeneID 227737) | 2 | 57.5 | 75.9 | inactive |
| Niban2 (GeneID 227737) | 3 | 96 | 103 | inactive |
